Test results as given in patent publication US20130136691A1, “GASTRIN […] PEPTIDE COMPOUNDS” (priority 2008, published 2013).

Test system: GRP receptor binding in ZR-75-1 human breast cancer cells
Test: 4-hydroxytamoxifen effect on 177Lu-AMBA binding and proliferation in ZR-75-1 cells (2 to 12 days)
Type: cell-based
Settings: viable cell basis

CC/C(=C(\c1ccc(O)cc1)c1ccc(OCCN(C)C)cc1)c1ccccc1 [Compound 4-Hydroxy-Tamoxifen]
% change in ^177Lu-AMBA uptake (1 nM): −42.6 (±7.1) % | % change in ^177Lu-AMBA uptake (10 nM): −57.3 (±8.4) % | % change in ^177Lu-AMBA uptake (100 nM): −69.2 (±4.9) %
